## Primary screen of a compound library

Protein sequences, listed by entry. Tags and fused reporters are not part of them. Residues count along the entry.
UniProt Q4DA54, 1-478: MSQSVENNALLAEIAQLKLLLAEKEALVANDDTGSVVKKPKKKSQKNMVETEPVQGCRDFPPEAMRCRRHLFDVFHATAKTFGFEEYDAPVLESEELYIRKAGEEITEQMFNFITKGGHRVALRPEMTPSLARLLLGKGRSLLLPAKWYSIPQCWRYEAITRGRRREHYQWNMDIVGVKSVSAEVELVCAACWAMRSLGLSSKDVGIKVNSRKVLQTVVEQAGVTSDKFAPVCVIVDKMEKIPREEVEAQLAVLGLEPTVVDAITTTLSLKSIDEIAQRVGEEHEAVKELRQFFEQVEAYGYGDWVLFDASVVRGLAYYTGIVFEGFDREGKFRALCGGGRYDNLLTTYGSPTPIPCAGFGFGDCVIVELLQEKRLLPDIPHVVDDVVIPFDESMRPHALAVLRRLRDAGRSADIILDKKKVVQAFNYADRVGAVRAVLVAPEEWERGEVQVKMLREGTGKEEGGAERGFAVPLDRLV
UniProt P9WNZ1, whole entry: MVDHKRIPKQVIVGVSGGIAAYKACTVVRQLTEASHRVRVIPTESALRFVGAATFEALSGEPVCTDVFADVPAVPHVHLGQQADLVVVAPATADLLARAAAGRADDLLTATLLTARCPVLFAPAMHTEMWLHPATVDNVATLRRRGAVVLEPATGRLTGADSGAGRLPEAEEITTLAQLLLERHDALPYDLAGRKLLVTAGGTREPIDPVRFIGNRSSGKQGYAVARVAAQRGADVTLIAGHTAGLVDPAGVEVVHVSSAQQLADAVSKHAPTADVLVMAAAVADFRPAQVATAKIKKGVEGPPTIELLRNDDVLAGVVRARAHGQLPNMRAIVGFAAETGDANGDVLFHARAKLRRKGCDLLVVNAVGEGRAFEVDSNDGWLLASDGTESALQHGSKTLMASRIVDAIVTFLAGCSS
UniProt P9WPC5, whole entry: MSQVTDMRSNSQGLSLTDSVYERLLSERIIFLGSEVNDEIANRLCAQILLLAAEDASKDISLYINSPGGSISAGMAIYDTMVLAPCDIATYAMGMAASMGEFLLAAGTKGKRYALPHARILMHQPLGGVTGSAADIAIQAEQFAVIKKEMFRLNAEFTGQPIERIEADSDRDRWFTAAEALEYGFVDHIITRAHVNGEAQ
UniProt P9WPC3, whole entry partner: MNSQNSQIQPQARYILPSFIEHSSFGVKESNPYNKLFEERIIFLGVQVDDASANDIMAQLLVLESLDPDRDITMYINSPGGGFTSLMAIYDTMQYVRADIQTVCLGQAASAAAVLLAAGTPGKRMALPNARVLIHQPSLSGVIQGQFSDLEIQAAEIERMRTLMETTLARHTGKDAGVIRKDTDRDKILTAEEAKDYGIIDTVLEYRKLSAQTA
UniProt Q8IDJ8, 1-583: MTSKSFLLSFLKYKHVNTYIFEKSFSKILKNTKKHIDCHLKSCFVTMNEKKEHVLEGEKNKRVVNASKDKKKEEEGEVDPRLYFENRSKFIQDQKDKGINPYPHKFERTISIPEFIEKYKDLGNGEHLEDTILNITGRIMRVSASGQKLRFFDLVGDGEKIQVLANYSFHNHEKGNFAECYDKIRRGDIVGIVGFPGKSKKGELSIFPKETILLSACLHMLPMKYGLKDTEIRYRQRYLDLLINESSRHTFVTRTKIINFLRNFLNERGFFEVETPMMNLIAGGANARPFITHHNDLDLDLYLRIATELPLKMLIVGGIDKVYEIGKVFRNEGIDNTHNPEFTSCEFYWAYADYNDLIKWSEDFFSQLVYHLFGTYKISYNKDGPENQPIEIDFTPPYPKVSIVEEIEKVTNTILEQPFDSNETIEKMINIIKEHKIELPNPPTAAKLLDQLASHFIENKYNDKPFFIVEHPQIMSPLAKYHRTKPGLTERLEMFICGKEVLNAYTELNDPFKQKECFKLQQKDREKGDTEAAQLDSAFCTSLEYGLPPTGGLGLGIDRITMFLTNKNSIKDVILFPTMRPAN

Leishmania in macrophages: 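Cell assay of Leishmania donovani living inside macrophages; the read-out is not stated. Compounds at 30 µM. Higher reads as stronger inhibition (inferred: compounds with an IC50 in retests scored well above the rest). Size under these conditions: about 69,000 compounds, about 1,000 of them at 50% or above in at least one test.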
TcHisRS: 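Histidine-tRNA ligase, Trypanosoma cruzi CL Brener (UniProt Q4DA54). Enzyme assay of histidyl-tRNA synthetase; the read-out is not stated. Tested at 30 µM. Direction is inferred from retests: higher values go with stronger inhibition. About 69,000 compounds were tested under these conditions; 0.045% (about 31) showed 50% or more at least once.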
CoaBC: 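Enzyme assay of CoaBC with a phosphate dye (Biomol Green) read at 650 nm. Target: Coenzyme A biosynthesis protein CoaBC, Mycobacterium tuberculosis (UniProt P9WNZ1). Compounds at 30 µM. Direction is inferred from only a few compounds that gave an IC50; most scored high, so higher reads as stronger inhibition. Most strong results did not repeat in a second test. Size under these conditions: about 67,000 compounds, about 40 of them at 50% or above in at least one test.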
ClpP1P2: 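Protease assay of ClpP1P2, read by the AMC dye that it sets free. Target: ClpP1P2, Mycobacterium tuberculosis (UniProt P9WPC5 and UniProt P9WPC3). Compounds at 50 µM. Higher reads as stronger inhibition, judged from the few compounds that gave an IC50. Most other retested compounds had strongly negative values. Size under these conditions: about 69,000 compounds, about 10 of them at 50% or above in at least one test.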
PfKRS1: 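Enzyme assay of the cytosolic lysyl-tRNA synthetase in 384-well plates, read by luminescence. Target: Lysine-tRNA ligase, Plasmodium falciparum 3D7 (UniProt Q8IDJ8). Tested at 30 µM. Direction is inferred from only a few compounds that gave an IC50; most scored high, so higher reads as stronger inhibition. Of about 69,000 compounds tested this way, about 49 (0.071%) reached 50% or more in at least one test.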

The filed quantity is “Percent Effect” (%). How 0% and 100% were set is not recorded. Most values in the screen are low, and negative values occur. This is an unselected part of the compounds tested. Two or more numbers in one place are separate tests of the same structure; such repeats can differ widely. A dash means the value is not listed here; it may have been measured.

| Compound | Leishmania in macrophages | TcHisRS | CoaBC | ClpP1P2 | PfKRS1 |
|---|---|---|---|---|---|
| `CCn1c(C)nnc1CN(C)C1CCN(CCOc2ccccc2)C1` (configuration not stated) | 2.866% | 7.872% | 2.872% | -12.76% | -2.371% |
| `CC(C)(C)c1nnc(CN2CCn3c(nnc3C3CC3)C2)o1` | 3.423% | 7.17% | -0.3911% | 5.544% | 9.463% |
| `Cc1ccc2c(c1)CCC2NCc1c(C)nn(C)c1N1CCOCC1` (configuration not stated) | - | 6.286% | 1.05% | -20.14% | 1.723% |
| `Cc1cc(F)ccc1OC1(C(=O)O)CCN(Cc2cccnc2)CC1` | 9.303% | 4.372% | -1.089% | -6.831% | 3.141% |
| `COc1ccccc1CC(=O)NCc1c(C)nc2cc(=O)[nH]n2c1C` | 16.78% | 4.183% | -2.66% | 1.312% | 4.523% |
| `Cc1cc(O)cc2c(=O)oc(CC(C)O)cc12` (configuration not stated) | 27.02% | 1.493% | -2.161% | -1.055% | 6.663% |
| `O=C(NC1CCN(Cc2ccc(F)cc2)CC1)c1ccc2c(c1)CCC2` | -12.29% | 16.05% | 8.712% | -1.431% | 2.425% |
| `CN(C(=O)C1CCOCC1)[C@@H]1CCC[C@@H](N2CCOCC2)[C@@H]1O` | 10.77% & 7.786% | 4.396% | 4.126% | -8.179% | 5.035% |
| `CSCc1ccc(N(C)CC2CCCN(C(C)C)C2)nc1` (configuration not stated) | 8.575% | 7.609% | -6.075% | 3.086% | 1.992% |
| `CCOc1cccc(CNC(=O)C(C)(C)C#N)c1OC(F)F` | 15.69% | 5.028% | 9.677% | -5.344% | 2.062% |
| `COCC1c2nnn(C)c2CCN1C(=O)CCc1cccc(OC)c1` (configuration not stated) | 14.73% | 4.42% | 1.98% | -2.553% | 4.39% |
| `O=C(O)C(F)(F)F.[H][C@]12OCCC[C@]1([H])N(C(=O)COC)C[C@H]2OCc1cccnc1` | 3.444% | - | - | - | - |
| `O=C(NCc1ccccc1CN1CCC(O)CC1)Nc1ccncc1` | 6.807% | 4.167% | -40.3% | 2.087% | -6.221% |
| `CN(C)CCOCc1cncc2c1CCN(C1CCOCC1)C2` | - | 4.444% | 4.634% | 8.167% | 2.622% |
| `CSCc1noc(CNC(=O)c2cc(C)c(C)[nH]c2=O)n1` | 20.7% | -17.88% | -1.028% | 8.516% | 9.076% |
| `CCOCCCNC(=O)C1CCC(=O)N(CCc2ccc(Cl)cc2)C1` (configuration not stated) | 17.47% | 2.232% | 3.316% | -17.06% | 5.193% |
| `COCCN1CCC(c2nc3c([nH]2)CC(C)(C)CNC3=O)C1` (configuration not stated) | 6.366% | 3.175% | -2.564% | -2.493% | -1.428% |
| `c1cc2c(cc1CSCc1noc(C3CC3)n1)OCCO2` | -50.47% | -1.01% | 3.03% | 5.825% | 0.3989% |
| `Cc1ccc(CNC(=O)NC2CCN(CC(F)F)CC2)cc1` | 7.091% | 2.326% | 8.584% | -1.383% | -0.9232% |
| `COCC(=O)Nc1cnn(COc2ccc(F)cc2Cl)c1` | -52.67% | 7.018% | 5.855% | 7.956% | 4.898% |
| `Fc1cccc(CN2CCC(c3noc(-c4cnccn4)n3)CC2)c1F` | -1.463% | 4.135% | 18.41% | -0.9932% | -0.03051% |
| `Cn1cc(C(=O)NCc2ccc(OC3CCCCC3)nc2)ccc1=O` | 41.52% | 10.5% | 0.8917% | -6.863% | 0.6486% |
| `Cc1ccc(CNC(=O)CN2CCOC(Cn3cccn3)C2)s1` (configuration not stated) | 26.96% | 9.038% | 5.853% | -18.01% | 0.8959% |
| `CC(C)N(CC(N)=O)Cc1csc(C(C)(C)C)n1` | 1.701% | 3.429% | 0% | -8.148% | -0.342% |
| `CN(C)C(=O)N1CC2(CCNCC2)c2cc(F)ccc21` | - | 9.852% | 2.284% | -5.86% | 3.553% |
| `CC(C)OCc1ccc(CNC(=O)NC2(CO)CCCC2)cc1` | -24.43% | 2.299% | 0.4% | 3.845% | 8.392% |
| `Cc1nccc(C(=O)N2CCCN(Cc3nccn3C(C)C)CC2)n1` | 24.06% | 9.677% | 1.053% | -26.28% | 1.653% |
| `CCc1nn(-c2cc(Oc3cccc(C)c3)nc(C)n2)c(N)c1C#N` | 7.559% | 2.062% | -1.79% | -3.771% | 2.378% |
| `O=C(COc1coc(CN2CCCC2)cc1=O)Nc1ccc(Cl)c(Cl)c1` | -11.05% | 2.924% | 0.2525% | -13.29% | 3.346% |
| `CCOCC(=O)N1CCC(Oc2ccc(C(F)(F)F)cn2)CC1` | 11.81% | 4.348% | 4.183% | -24% | 3.543% |
| `CN(C)c1nc2c(c(=O)[nH]1)CCN(C(=O)c1ccc(=O)[nH]c1)C2` | 23.82% | 3.933% | 1.006% | -3.34% | 5.228% |
| `O=C(CNc1ccc(OC2CCOC2)cc1)NCc1ccc(F)cc1` (configuration not stated) | -74.16% | 6.468% | 0.1255% | -5.312% | 3.361% |
| `COCC1COCCC12CCN(C(=O)CCc1ccccc1)CC2` (configuration not stated) | -0.7032% | 1.604% | -4.348% | -5.596% | 1.481% |
| `O=C(c1cscn1)N1CC[C@H]2C[C@@H](c3ccncn3)O[C@@H]2C1` | - | 5.785% | 0.8403% | 4.946% | 8.571% |
| `O[C@H]1[C@H](n2cc(CN3CCCC3)nn2)c2ccccc2C12CCNCC2` | 17.05% | 8.466% | -36.09% | 3.521% | 7.162% |
| `Cl.O=C(O)CN1CCC(C(F)(F)F)CC1` | 10.24% & 36.27% | - | - | - | - |
| `Cc1[nH]ncc1C(=O)N1CCCC(c2ccn[nH]2)C1` (configuration not stated) | 9.485% | 2.924% | 5.102% | -4.409% | -0.03954% |
| `CN1CC2(CCN(S(=O)(=O)C3CC3)CC2)c2ccccc21` | - | 12.66% | - | -2.081% | 2.154% |
| `CC(C)c1nccn1-c1cncc(C2CCCN(C3CCCCC3)C2)n1` (configuration not stated) | 8.459% & 16.8% | 8.791% | 2.67% | 9.178% | 3.953% |
| `CC(C)(C#N)c1ccccc1CN1CCC(N2CCCC2=O)CC1` | -13.64% | 5% | 14.01% | -6.976% | -5.207% |
| `O=C(c1cc(F)cc(Cl)c1)N1C[C@@H]2CC[C@H](C1)N(Cc1ccccc1)C2` | - | 28.14% | -8.239% | -10.89% | -0.2409% |
| `CCSc1ncc(-c2cc(C3CC3)nc(N)c2C#N)cn1` | -21% | 9.091% | 2.694% | -56.75% | 3.262% |
| `CCNC(=O)c1cnc(Cc2ccc(F)cc2)s1` | 25.43% | 3.734% | 3.125% | -17.76% | 2.581% |
| `Cc1nc(C)c(C(=O)NCCn2nc3ccccn3c2=O)s1` | -19.89% | 5.539% | 6.6% | -20.49% | 0.5035% |
| `CC(=O)c1ccc(OCC(C)O)cc1O` (configuration not stated) | 26% | 0% | -0.1227% | -12.66% | 1.727% |
| `O=C(Nc1cn[nH]c1)N(CCO)C1CCc2ccccc21` (configuration not stated) | 21.05% | 2.597% | 1.707% | -3.695% | 3.558% |
| `CN(C)C(=O)CN1CCOCC2(C1)CN(c1ncccn1)CCO2` (configuration not stated) | - | 0% | -1.733% | -4.348% | -0.01614% |
| `Cc1nn(C)c2c(NCCCn3cccn3)ncnc12` | 14.68% | 1.639% | 8.21% | 10.17% | 1.878% |
| `CCn1cnnc1CNC(=O)NC(C)c1ccc(Cl)s1` (configuration not stated) | 14.28% | 1.729% | 5.909% | -19.55% | 0.942% |
| `Cc1ccc(N2CCC3(CCN(C(=O)c4ccoc4)CC3)CC2)nn1.O=C(O)C(F)(F)F` | 19.05% | - | - | - | - |
| `CCN1C(=O)C2(CCN(CCN(C)C)CC2)c2ccccc21.O=C(O)C(F)(F)F.O=C(O)C(F)(F)F` | 35.36% | - | - | - | - |
| `Cc1nn(C)c(N2CCOCC2)c1CNC(c1cccs1)C(C)C` (configuration not stated) | 14.52% | 1.515% | 3.506% | 10.15% | 5.099% |

6 of the entries, repeated:

| Compound | Leishmania in macrophages | TcHisRS | CoaBC | ClpP1P2 | PfKRS1 |
|---|---|---|---|---|---|
| `CCN1C(=O)C2(CCN(CCN(C)C)CC2)c2ccccc21.O=C(O)C(F)(F)F.O=C(O)C(F)(F)F` | 35.36% | - | - | - | - |
| `COCC1c2nnn(C)c2CCN1C(=O)CCc1cccc(OC)c1` (configuration not stated) | 14.73% | 4.42% | 1.98% | -2.553% | 4.39% |
| `CN(C)CCOCc1cncc2c1CCN(C1CCOCC1)C2` | - | 4.444% | 4.634% | 8.167% | 2.622% |
| `CC(=O)c1ccc(OCC(C)O)cc1O` (configuration not stated) | 26% | 0% | -0.1227% | -12.66% | 1.727% |
| `CC(C)N(CC(N)=O)Cc1csc(C(C)(C)C)n1` | 1.701% | 3.429% | 0% | -8.148% | -0.342% |
| `Cl.O=C(O)CN1CCC(C(F)(F)F)CC1` | 10.24% & 36.27% | - | - | - | - |

Source: ChEMBL document CHEMBL3988442, “University of Dundee, Small-Polar-MMV Screening Library” (2021).